Laboratory results taken from PubChem BioAssay AID2685 (National Center for Advancing Translational Sciences (NCATS), 2010).
Out of some 320,000 compounds screened, about 2,100 (0.66%) were called active. This list was built around the results that the source calls inconclusive (neither active nor inactive); the mix of calls is not that of the screen. Calls come from the whole dose curve; as a rule, active = well fitted inhibition curve with a large enough effect in the signal ratio, with a control signal flat (not every such curve was filed as active); inconclusive = small, poorly fitted or top-dose-only effect, or effect the other way, or a change in a side signal; inactive = flat fitted curve, though single readings scatter; the % refers to the signal ratio. A potency beside an inconclusive call is a rough fit, not a confirmed value.

assay: qHTS Assay for Lipid Storage Modulators in Drosophila S3 Cells; details: BODIPY lipid droplet fluorescence, 18-24 h, cells fed with added oleic acid; lipid storage change, negative = inhibition: at 46.1 µM (top of the series) unless noted
In short: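 Drosophila S3 cells loaded with oleic acid (400 uM, as added) and compounds at several concentrations; lipid droplets imaged by 488-nm laser-scanning cytometry, 500–530 nm intensity and object ratio to cell channel. Percent activity normalized to 20 uM Triacsin C.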
% is set by controls: 0 for no effect and ±100 for the full control effect; potency is the fitted concentration of half-maximal effect.

For `Cn1nccc1NC(=O)Nc1ccc(Cl)cc1`, which lipid storage change, negative = inhibition is on record?
The lipid storage change, negative = inhibition was inconclusive: -4.87%.

With `O=C(COc1ccc([N+](=O)[O-])cc1)N(Cc1cccs1)C1CCS(=O)(=O)C1` (configuration not stated) as the compound, how does the lipid storage change, negative = inhibition read?
The lipid storage change, negative = inhibition was inconclusive: 56.3%.

With `CC1(c2nnc(-c3cccc(Cl)c3)o2)CC(c2cccc([N+](=O)[O-])c2)=NO1` (configuration not stated) as the compound, how does the lipid storage change, negative = inhibition read?
The lipid storage change, negative = inhibition was inconclusive: 4.07%.

Which lipid storage change, negative = inhibition does the source give for `CCOC(=O)C1=C(O)C(=O)N(c2ccc(S(N)(=O)=O)cc2)C1c1ccccc1` (configuration not stated) here?
The lipid storage change, negative = inhibition was inconclusive: -15.4%.

Which Potency does the source give for `O=C(Cc1ccc([N+](=O)[O-])cc1)Nc1nccs1` here?
Its Potency is inconclusive: 0.291 µM [activator, full curve].

Which lipid storage change, negative = inhibition does the source give for `Cc1ccc(NC(=O)CCNS(=O)(=O)c2ccccc2)c(C(=O)c2ccccc2)c1` here?
The lipid storage change, negative = inhibition was inconclusive: 3.26%.

Which Potency does the source give for `C[C@@H](NC(=O)c1nc[nH]c1C(=O)N1CCN(C(=O)OC(C)(C)C)CC1)c1ccccc1` here?
The Potency was inconclusive: 29.1 µM [falling, single point].

With `COc1ccc(NC(=O)CSc2c3c(nc4ccccc24)CCCC3)c(OC)c1` as the compound, how does the Potency read?
Its Potency is inconclusive: 25.9 µM [activator, single point].

Which lipid storage change, negative = inhibition does the source give for `CC(NC(=O)CCCCCN1C(=O)c2ccccc2C1=O)c1ccc2c(c1)CCCC2` (configuration not stated) here?
Its lipid storage change, negative = inhibition is inconclusive: 31.6%.

Which lipid storage change, negative = inhibition does the source give for `Nc1nnc(SCC(=O)Nc2cccc(S(N)(=O)=O)c2)s1` here?
The lipid storage change, negative = inhibition was inconclusive: -36.7%.

For `CCOc1ccccc1Oc1cn[nH]c1-c1ccc(O)cc1O`, which lipid storage change, negative = inhibition is on record?
The lipid storage change, negative = inhibition was inconclusive: -0.528%.

Which lipid storage change, negative = inhibition does the source give for `CSCCC(NS(=O)(=O)c1ccc2c(c1)c(=O)n(C)c(=O)n2C)C(=O)NC1CCN(Cc2ccccc2)CC1` (configuration not stated) here?
Its lipid storage change, negative = inhibition is inconclusive: -1.21%.

For `CCOC(=O)C1CN(S(=O)(=O)c2ccc(OC)cc2)c2cc(Cl)ccc2O1` (configuration not stated), which lipid storage change, negative = inhibition is on record?
The lipid storage change, negative = inhibition was inconclusive: 11.6%.

Which Potency does the source give for `COc1ccc(-c2cc(=O)c3cc(OC)ccc3o2)cc1` here?
Its Potency is inconclusive: 0.731 µM [rising, single point].

With `CC(NC(=O)c1ccc(NS(C)(=O)=O)cc1)c1ccccc1` (configuration not stated) as the compound, how does the Potency read?
The Potency was inconclusive: 6.51 µM [falling, single point].

For `O=C1OC(=O)c2cc([N+](=O)[O-])ccc21`, which Potency is on record?
The Potency was inconclusive: 14.6 µM [activator, partial curve, poor fit].

Which lipid storage change, negative = inhibition does the source give for `CC1CCCC(NS(=O)(=O)c2cc(Br)cnc2N)C1C` (configuration not stated) here?
The lipid storage change, negative = inhibition was inconclusive: -61.5%.

Which Potency does the source give for `CC(C)c1ccc(C2/C(=C(\O)c3ccc4c(c3)OCCO4)C(=O)C(=O)N2CCN2CCOCC2)cc1` (configuration not stated) here?
Its Potency is inconclusive: 0.146 µM [activator, partial curve, poor fit].

For `CCc1nnc(NC(=O)Cn2nnc(-c3ccccc3F)n2)s1`, which lipid storage change, negative = inhibition is on record?
The lipid storage change, negative = inhibition was inconclusive: 22.7%.

For `CCn1ccc(C(=O)Nc2cccc(Cl)c2)n1`, which Potency is on record?
Its Potency is inconclusive: 0.164 µM [activator, single point].

Which Potency does the source give for `CC(Oc1ccc2ccc(=O)oc2c1)C(=O)NCC1CCC(C(=O)O)CC1` (configuration not stated) here?
The Potency was inconclusive: 29.1 µM [falling, single point].

With `O=C(COC(=O)c1ccc([N+](=O)[O-])s1)Nc1cccc(S(=O)(=O)NC2=NCCCCC2)c1` as the compound, how does the lipid storage change, negative = inhibition read?
Its lipid storage change, negative = inhibition is inconclusive: -6.03%.

With `CCOC(=O)CNC(=O)Nc1ccccc1C(=O)OC` as the compound, how does the Potency read?
Its Potency is inconclusive: 6.51 µM [falling, single point].

Which Potency does the source give for `O=C1NC(Cc2ccccc2)c2nc3cc(F)ccc3c(=O)n2-c2cc(Cl)ccc21` (configuration not stated) here?
Its Potency is inconclusive: 6.51 µM [activator, single point].

For `COc1ccc(NC(=O)NCc2ccc3c(c2)OCO3)c(OC)c1`, which Potency is on record?
Its Potency is inconclusive: 1.78 µM [activator, partial curve].

Which Potency does the source give for `CCc1ccc(NC(=O)CSc2nnc(C3CC3)n2CC2CCCO2)cc1` (configuration not stated) here?
The Potency was inconclusive: 0.291 µM [activator, full curve].

Which lipid storage change, negative = inhibition does the source give for `CCc1nn(CC(=O)N2CCN(CC)CC2)c(=O)c2cccn12` here?
The lipid storage change, negative = inhibition was inconclusive: 17.9%.

With `CCn1c(SCC(N)=O)nnc1-c1ccc2[nH]c(C)c(C)c2c1` as the compound, how does the lipid storage change, negative = inhibition read?
The lipid storage change, negative = inhibition was inconclusive: 27.9%.

For `CCc1cccc(NS(=O)(=O)c2csc(C(N)=O)c2)c1`, which lipid storage change, negative = inhibition is on record?
The lipid storage change, negative = inhibition was inconclusive: -41%.

For `CCOC(=O)N1CCN(CC(O)COCCC23CC4CC(CC(C4)C2)C3)CC1` (configuration not stated), which lipid storage change, negative = inhibition is on record?
Its lipid storage change, negative = inhibition is inconclusive: -1.14%.

Which lipid storage change, negative = inhibition does the source give for `Cc1nnc(SCC(=O)Nc2ccc(-c3nc4ccccc4s3)cc2)s1` here?
The lipid storage change, negative = inhibition was inconclusive: 31.2%.

For `Cc1ccc(S(=O)(=O)N2CCN(C(=O)CN3CCOCC3)C2C(C)C)cc1` (configuration not stated), which lipid storage change, negative = inhibition is on record?
The lipid storage change, negative = inhibition was inconclusive: 12.9%.

With `Cc1ccc2nc(N3CCN(CCO)CC3)nc(-c3ccccc3)c2c1` as the compound, how does the lipid storage change, negative = inhibition read?
The lipid storage change, negative = inhibition was inconclusive: 59.2%.

Which lipid storage change, negative = inhibition does the source give for `Cc1ccc(S(=O)(=O)c2c(N)n(Cc3ccco3)c3nc4ccccc4nc23)cc1` here?
Its lipid storage change, negative = inhibition is inconclusive: 7.58%.

For `CC(Sc1nnc2ccccn12)C(=O)Nc1ccc2c(c1)OCCO2` (configuration not stated), which lipid storage change, negative = inhibition is on record?
Its lipid storage change, negative = inhibition is inconclusive: -4.97%.

With `COC(=O)C1=C(O)CSC1=Nc1cccc(C(F)(F)F)c1` as the compound, how does the lipid storage change, negative = inhibition read?
The lipid storage change, negative = inhibition was inconclusive: 54.6%.

For `CCOc1cc(NC(=S)NCCCN2CCOCC2)c(OCC)cc1NC(=O)c1ccccc1C`, which lipid storage change, negative = inhibition is on record?
The lipid storage change, negative = inhibition was inconclusive: -23.2%.

For `Cc1ccc(NC(=O)CN(C)C(=O)c2ccc(NS(=O)(=O)c3ccc4[nH]c(=O)[nH]c4c3)cc2)cc1`, which lipid storage change, negative = inhibition is on record?
Its lipid storage change, negative = inhibition is inconclusive: 8.16%.

With `Cc1ccc(C)c(S(=O)(=O)N2CCC(c3nc4c(nnn4Cc4ccc5c(c4)OCCO5)c(=O)[nH]3)CC2)c1` as the compound, how does the Potency read?
Its Potency is inconclusive: 25.9 µM [falling, single point].

For `CCCCN(C(=O)NC(=O)Nc1ccccc1OC)S(C)(=O)=O`, which lipid storage change, negative = inhibition is on record?
Its lipid storage change, negative = inhibition is inconclusive: 4.65%.

Which Potency does the source give for `O=C1CCN(S(=O)(=O)c2cccs2)c2ccc(C(F)(F)F)cc2N1` here?
The Potency was inconclusive: 0.13 µM [falling, full curve, poor fit].

For `CCC(=O)Nc1ccc(S(=O)(=O)NCc2ccco2)cc1`, which lipid storage change, negative = inhibition is on record?
The lipid storage change, negative = inhibition was inconclusive: -30.6%.

Which lipid storage change, negative = inhibition does the source give for `O=C(CC1(CC(=O)N2CCOCC2)CCCC1)Nc1ccccc1` here?
Its lipid storage change, negative = inhibition is inconclusive: 11.9%.

Which Potency does the source give for `Cc1cc(-n2c(C)cc(C(=O)COc3cc(F)ccc3[N+](=O)[O-])c2C)no1` here?
The Potency was active: 8.2 µM.

Which Potency does the source give for `O=C(NC1CCCCCC1)c1ccc([N+](=O)[O-])s1` here?
Its Potency is inconclusive: 29.1 µM [activator, single point].

Which Potency does the source give for `CC1CCN(C(=O)COC(=O)c2cc3ccccc3cc2O)CC1` here?
Its Potency is inconclusive: 25.9 µM [falling, single point].

With `COCC(C)N=C1NN=C(c2ccc(NC(C)=O)cc2)CS1` (configuration not stated) as the compound, how does the Potency read?
The Potency was inconclusive: 6.51 µM [rising, partial curve, poor fit].
